The source of these data is PMC11212232.

Chains of the proteins cited; added tags and fusions are not shown. Residues count along the entry.
UniProt Q9NYB9: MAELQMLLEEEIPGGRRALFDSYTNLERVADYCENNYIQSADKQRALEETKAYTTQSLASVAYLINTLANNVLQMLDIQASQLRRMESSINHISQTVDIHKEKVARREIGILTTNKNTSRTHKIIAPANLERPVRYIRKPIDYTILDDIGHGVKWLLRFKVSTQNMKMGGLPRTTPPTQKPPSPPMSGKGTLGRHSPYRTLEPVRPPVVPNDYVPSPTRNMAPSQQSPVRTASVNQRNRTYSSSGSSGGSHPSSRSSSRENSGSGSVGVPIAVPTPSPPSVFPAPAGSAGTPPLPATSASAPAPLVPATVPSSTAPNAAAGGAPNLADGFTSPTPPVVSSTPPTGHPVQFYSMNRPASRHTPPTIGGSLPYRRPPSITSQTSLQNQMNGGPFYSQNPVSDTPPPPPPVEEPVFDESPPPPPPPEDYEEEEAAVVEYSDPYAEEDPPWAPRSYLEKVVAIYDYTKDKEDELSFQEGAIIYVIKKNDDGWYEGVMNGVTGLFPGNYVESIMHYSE
UniProt P21281: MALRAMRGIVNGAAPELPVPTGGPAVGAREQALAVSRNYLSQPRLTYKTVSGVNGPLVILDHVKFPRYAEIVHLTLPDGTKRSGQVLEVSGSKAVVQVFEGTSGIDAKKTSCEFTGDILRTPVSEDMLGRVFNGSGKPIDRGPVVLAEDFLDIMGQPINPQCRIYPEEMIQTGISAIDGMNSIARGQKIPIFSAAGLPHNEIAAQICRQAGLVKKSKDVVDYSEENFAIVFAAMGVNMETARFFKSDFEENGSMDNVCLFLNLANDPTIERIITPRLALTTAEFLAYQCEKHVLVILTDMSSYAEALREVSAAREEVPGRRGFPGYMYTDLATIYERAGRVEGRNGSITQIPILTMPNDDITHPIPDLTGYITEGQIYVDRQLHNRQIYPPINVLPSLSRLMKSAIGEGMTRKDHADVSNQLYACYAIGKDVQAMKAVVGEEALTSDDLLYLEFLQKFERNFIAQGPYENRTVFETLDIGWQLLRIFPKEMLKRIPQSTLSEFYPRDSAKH
UniProt Q16864: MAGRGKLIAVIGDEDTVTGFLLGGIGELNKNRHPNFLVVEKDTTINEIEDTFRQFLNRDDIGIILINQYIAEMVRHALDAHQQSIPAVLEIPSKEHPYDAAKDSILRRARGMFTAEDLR
UniProt P24385: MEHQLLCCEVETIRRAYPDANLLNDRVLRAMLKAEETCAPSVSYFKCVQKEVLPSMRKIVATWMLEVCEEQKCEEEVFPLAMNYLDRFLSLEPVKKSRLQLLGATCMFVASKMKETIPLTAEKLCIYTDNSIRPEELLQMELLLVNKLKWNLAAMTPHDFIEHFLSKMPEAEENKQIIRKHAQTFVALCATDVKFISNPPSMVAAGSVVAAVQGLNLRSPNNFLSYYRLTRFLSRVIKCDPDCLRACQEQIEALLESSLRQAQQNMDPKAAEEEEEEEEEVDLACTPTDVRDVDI
UniProt P12109, residues 20-1028: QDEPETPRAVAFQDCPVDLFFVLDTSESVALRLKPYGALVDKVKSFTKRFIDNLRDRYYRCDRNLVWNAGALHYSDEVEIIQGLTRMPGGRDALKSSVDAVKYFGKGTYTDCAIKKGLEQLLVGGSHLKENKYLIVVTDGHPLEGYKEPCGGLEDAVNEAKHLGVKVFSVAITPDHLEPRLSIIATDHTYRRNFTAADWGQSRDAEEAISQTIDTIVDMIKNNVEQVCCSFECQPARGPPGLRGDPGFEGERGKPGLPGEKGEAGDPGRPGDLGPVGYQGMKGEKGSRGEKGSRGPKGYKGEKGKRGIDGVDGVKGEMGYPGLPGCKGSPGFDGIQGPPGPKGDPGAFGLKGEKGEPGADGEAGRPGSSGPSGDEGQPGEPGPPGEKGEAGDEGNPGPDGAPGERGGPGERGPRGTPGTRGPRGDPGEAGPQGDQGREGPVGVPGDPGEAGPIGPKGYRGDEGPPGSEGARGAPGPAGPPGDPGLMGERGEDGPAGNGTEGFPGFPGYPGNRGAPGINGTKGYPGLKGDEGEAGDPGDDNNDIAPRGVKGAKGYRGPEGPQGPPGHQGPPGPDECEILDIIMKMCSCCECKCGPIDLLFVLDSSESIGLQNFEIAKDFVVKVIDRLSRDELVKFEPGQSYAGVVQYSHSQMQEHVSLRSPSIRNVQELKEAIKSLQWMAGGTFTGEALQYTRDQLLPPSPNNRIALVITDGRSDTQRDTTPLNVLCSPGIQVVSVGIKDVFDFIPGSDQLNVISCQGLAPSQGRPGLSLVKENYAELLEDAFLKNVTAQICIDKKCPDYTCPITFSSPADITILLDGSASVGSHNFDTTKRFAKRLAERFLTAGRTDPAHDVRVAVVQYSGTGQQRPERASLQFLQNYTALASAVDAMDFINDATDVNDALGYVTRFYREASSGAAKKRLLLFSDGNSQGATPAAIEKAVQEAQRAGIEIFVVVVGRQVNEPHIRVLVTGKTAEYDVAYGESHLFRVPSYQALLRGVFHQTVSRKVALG
UniProt O60573: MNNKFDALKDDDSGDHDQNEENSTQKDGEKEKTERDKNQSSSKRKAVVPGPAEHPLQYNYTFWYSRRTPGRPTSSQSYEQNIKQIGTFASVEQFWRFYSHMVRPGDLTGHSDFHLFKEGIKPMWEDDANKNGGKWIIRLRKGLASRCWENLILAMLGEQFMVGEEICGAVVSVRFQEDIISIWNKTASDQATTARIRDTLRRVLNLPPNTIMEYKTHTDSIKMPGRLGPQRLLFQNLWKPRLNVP
UniProt P62873: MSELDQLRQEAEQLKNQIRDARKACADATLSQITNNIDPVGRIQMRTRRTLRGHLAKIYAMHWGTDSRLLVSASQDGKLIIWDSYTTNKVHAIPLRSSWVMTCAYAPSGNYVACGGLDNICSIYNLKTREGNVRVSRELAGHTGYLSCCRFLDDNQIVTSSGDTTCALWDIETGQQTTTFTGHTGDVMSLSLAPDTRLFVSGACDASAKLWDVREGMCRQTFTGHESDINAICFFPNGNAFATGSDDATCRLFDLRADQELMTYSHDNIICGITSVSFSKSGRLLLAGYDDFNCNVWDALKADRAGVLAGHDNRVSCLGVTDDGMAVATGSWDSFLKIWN
UniProt Q9UBI6: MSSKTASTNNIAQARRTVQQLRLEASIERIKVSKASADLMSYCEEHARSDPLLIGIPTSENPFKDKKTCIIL
UniProt Q15418: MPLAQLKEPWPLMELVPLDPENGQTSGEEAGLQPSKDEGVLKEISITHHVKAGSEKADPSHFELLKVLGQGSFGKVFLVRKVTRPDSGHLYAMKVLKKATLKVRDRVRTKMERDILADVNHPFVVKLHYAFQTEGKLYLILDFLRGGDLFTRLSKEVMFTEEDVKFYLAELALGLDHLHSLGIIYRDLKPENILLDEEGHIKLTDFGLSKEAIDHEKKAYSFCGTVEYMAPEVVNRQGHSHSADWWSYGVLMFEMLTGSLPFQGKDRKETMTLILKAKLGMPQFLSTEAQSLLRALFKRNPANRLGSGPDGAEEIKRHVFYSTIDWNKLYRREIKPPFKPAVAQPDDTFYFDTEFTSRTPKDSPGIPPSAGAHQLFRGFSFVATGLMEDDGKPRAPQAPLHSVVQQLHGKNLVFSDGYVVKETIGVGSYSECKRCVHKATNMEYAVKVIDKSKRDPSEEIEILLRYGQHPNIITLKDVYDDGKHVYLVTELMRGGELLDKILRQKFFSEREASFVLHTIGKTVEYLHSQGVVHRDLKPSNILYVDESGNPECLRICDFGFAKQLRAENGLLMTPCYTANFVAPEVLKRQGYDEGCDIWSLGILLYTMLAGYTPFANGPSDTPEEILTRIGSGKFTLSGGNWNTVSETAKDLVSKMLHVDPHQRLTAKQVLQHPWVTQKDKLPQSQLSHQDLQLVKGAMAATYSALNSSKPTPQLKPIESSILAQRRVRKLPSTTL
UniProt Q9UBS0: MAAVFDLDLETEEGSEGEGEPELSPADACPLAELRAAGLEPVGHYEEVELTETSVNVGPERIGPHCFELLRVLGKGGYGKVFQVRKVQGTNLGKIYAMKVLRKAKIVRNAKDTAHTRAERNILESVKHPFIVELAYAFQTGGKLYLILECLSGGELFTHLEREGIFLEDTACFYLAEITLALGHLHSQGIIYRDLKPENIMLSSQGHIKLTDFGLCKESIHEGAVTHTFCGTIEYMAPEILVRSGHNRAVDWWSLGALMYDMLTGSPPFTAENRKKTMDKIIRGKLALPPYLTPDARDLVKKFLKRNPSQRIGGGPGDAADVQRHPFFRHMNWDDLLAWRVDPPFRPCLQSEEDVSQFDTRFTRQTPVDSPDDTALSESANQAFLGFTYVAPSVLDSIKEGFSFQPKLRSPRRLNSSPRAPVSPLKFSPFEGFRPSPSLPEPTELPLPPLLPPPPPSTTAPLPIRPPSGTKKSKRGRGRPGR
UniProt Q7L523: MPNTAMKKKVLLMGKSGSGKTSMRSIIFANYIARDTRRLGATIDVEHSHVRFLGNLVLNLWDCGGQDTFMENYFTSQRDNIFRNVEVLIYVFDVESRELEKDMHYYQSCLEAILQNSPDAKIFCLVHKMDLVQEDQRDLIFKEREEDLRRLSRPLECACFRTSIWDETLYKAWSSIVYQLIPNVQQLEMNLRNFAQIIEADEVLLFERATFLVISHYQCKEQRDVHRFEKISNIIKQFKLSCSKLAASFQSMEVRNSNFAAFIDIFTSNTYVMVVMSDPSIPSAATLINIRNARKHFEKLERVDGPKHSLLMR

These are yes or no findings as the source states them, for the method shown. In cells and extracts the contact can be indirect. A yes stands for co-enrichment or nearness to the bait. Other partners may have been found.

For the assay, the target named is GFP-ABI2 (ABL-interactor 2) (human) (UniProt Q9NYB9). The assay is described as follows: affinity purification with mass spectrometry; lysate of MDA-MB-231 cells overexpressing GFP-ABI2; anti-GFP or IgG antibodies, Protein A/G magnetic beads, washed with Pierce IP lysis buffer; SDS-PAGE and LC-MS/MS.

As for ATP6V1B2 (from UniProt P21281 1-511), the binding entry is “binds”.
ATP6V1F (from UniProt Q16864 1-119): the binding entry was “binds”.
To CCND1 (from UniProt P24385 1-295) belongs “binds”.
To COL6A1 (from UniProt P12109 20-1028) belongs “binds”; to EIF4E2 (from UniProt O60573 1-245), “binds”; to GNB1 (from UniProt P62873 1-340), “binds”.
Regarding GNG12 (from UniProt Q9UBI6 1-72), the binding result is recorded as “binds”.
To RAF1 (from UniProt P04049 1-648) belongs “binds”.
In the case of RPS6KA1 (from UniProt Q15418 1-735), the binding entry is “binds”.
RPS6KB2 (from UniProt Q9UBS0 1-482): the binding result is “binds”.
As to RRAGA (from UniProt Q7L523 1-313), the binding result is on record as “binds”.
